At least one compound was matched to its structure with a doubt left.
Test: Measurement of thermal stability (TG/DTA)
Conditions: 30° C. to 600° C., 10° C./min, air 200 mL/min

## CCCCCCCCCCCCN(CCCCCCCCCCCC)CCCCCCCCCCCC [Ex. 3A, trifluoromethanesulfonic acid-N,N,N-tridodecyl ammonium]
  Weight reduction temperature 5%: 286.0 °C
  Weight reduction temperature 10%: 333.3 °C
  Weight reduction temperature 20%: 364.5 °C
